This is an account of results in article doi:10.1101/2025.10.24.684417.

By UniProt entry, the sequences of proteins in these tests, tags left out.
UniProt Q13761: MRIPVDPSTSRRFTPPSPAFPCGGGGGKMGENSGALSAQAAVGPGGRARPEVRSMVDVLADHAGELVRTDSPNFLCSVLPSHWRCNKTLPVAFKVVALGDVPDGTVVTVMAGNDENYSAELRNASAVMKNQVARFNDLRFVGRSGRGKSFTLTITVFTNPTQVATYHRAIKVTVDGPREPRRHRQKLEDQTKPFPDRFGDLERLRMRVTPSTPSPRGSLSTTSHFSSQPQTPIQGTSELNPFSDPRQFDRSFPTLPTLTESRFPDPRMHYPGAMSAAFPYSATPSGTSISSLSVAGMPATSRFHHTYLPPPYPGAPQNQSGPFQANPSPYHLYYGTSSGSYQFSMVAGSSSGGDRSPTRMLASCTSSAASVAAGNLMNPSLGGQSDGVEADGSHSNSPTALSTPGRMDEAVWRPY
UniProt Q04726: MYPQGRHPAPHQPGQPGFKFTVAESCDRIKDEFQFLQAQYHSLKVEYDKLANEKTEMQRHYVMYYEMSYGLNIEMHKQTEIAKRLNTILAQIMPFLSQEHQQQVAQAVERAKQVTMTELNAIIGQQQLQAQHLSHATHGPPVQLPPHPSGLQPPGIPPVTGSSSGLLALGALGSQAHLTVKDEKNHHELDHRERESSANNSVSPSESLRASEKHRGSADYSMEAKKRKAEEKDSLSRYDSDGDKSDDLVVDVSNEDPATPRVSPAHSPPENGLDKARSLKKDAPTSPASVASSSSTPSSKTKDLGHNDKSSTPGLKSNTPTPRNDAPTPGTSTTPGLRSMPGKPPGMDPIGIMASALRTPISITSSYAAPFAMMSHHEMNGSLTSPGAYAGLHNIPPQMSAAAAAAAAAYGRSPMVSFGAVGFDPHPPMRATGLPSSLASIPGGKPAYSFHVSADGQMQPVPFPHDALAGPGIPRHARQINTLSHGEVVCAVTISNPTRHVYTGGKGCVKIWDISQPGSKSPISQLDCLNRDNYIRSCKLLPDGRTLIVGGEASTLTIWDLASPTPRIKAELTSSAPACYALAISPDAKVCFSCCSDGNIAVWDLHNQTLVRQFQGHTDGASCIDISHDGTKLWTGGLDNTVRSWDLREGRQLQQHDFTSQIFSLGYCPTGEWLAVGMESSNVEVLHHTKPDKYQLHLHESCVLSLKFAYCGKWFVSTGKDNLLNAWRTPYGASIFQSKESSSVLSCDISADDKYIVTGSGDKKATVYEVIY
UniProt Q04724: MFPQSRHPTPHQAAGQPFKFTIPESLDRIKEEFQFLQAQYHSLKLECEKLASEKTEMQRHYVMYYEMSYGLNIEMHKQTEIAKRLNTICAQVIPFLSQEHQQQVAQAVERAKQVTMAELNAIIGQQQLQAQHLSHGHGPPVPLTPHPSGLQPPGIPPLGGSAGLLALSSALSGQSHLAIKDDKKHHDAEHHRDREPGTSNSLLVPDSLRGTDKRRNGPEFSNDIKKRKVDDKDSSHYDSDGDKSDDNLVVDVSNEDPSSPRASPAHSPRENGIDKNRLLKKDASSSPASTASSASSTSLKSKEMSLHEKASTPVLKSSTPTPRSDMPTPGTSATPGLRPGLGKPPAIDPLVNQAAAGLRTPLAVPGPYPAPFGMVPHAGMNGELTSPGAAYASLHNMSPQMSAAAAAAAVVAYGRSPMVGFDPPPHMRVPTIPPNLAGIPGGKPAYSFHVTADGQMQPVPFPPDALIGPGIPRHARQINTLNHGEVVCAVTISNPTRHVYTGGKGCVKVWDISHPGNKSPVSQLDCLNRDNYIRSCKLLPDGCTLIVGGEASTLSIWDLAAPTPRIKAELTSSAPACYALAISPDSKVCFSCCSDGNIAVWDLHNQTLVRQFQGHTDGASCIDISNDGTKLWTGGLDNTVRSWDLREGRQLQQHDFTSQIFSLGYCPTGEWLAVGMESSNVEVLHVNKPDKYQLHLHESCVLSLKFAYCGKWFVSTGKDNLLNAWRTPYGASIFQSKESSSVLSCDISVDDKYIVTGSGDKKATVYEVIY

The assay concerns the target RUNX3 (as detected in the proximity ligation assays) (UniProt Q13761). The experiment in a line: proximity ligation.

These are yes or no findings as the source states them, for the method shown. Binding seen in cells or lysates may run through a third protein. Some binding calls cover weakened binding; strength is not graded here.

On to TLE3 (from UniProt Q04726 1-772), for which the binding entry was “binds”.
Consider TLE1 (from UniProt Q04724 1-770), for which the binding entry is on record as “binds”.
